These are yes or no findings as the source states them, for the method shown. In cells and extracts the contact can be indirect. A yes stands for co-enrichment or nearness to the bait. Other partners may have been found.
Biological target: PfSAMS-GFP-BirA fusion protein (P. falciparum)
Experiment: proximity labelling; BioID: PfSAMS-pfama1-GFP-BirA line treated with 50 µM biotin for 20-24 h; schizonts enriched by Percoll, lysed; biotinylated proteins purified on streptavidin beads and identified by LC-MS in triplicate; WT NF54 lysates as control; hits at least two-fold enriched, FDR 0.01

B1: phosphoethanolamine N-methyltransferase PfPMT (enzyme, UniProt Q8IDQ9 1-266)
chain: MTLIENLNSDKTFLENNQYTDEGVKVYEFIFGENYISSGGLEATKKILSDIELNENSKVLDIGSGLGGGCMYINEKYGAHTHGIDICSNIVNMANERVSGNNKIIFEANDILTKEFPENNFDLIYSRDAILHLSLENKNKLFQKCYKWLKPTGTLLITDYCATEKENWDDEFKEYVKQRKYTLITVEEYADILTACNFKNVVSKDLSDYWNQLLEVEHKYLHENKEEFLKLFSEKKFISLDDGWSRKIKDSKRKMQRWGYFKATKN
binding: binds
